# Measurements taken from publication PMC10667928.
# Amino acid sequences for entries named in this document (tags omitted).
# UniProt P32245: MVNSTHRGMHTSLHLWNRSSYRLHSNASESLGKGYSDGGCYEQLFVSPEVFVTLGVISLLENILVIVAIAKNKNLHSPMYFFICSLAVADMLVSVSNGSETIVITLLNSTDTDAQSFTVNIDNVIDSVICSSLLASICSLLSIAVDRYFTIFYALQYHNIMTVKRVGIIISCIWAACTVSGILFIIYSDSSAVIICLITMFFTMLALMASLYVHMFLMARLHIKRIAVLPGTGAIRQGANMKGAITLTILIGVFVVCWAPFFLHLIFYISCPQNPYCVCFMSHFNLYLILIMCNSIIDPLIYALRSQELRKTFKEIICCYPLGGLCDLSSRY
# Results are given in words; binding and its absence hold for the method and conditions named. Binding seen in cells or lysates may run through a third protein. Some binding calls cover weakened binding; strength is not graded here.
# Biological target: human MC4R wild-type (human) (UniProt P32245)
# Assay: FRET or BRET; FRET acceptor photobleaching (FRET-AB), intensity-based, on the same fixed HEK293T samples; bleach of mCherry at 594 nm in a membrane region of interest
substance,measurement,value
human MC4R wild-type (from UniProt P32245 1-332) (receptor),binding,binds
